No constants are given. Whether binding was seen depends on the method and setting. In cells and extracts the contact can be indirect. Some binding calls cover weakened binding; strength is not graded here.

Protein sequences, listed by entry. Tags and fused reporters are not part of them.
UniProt Q3URK3: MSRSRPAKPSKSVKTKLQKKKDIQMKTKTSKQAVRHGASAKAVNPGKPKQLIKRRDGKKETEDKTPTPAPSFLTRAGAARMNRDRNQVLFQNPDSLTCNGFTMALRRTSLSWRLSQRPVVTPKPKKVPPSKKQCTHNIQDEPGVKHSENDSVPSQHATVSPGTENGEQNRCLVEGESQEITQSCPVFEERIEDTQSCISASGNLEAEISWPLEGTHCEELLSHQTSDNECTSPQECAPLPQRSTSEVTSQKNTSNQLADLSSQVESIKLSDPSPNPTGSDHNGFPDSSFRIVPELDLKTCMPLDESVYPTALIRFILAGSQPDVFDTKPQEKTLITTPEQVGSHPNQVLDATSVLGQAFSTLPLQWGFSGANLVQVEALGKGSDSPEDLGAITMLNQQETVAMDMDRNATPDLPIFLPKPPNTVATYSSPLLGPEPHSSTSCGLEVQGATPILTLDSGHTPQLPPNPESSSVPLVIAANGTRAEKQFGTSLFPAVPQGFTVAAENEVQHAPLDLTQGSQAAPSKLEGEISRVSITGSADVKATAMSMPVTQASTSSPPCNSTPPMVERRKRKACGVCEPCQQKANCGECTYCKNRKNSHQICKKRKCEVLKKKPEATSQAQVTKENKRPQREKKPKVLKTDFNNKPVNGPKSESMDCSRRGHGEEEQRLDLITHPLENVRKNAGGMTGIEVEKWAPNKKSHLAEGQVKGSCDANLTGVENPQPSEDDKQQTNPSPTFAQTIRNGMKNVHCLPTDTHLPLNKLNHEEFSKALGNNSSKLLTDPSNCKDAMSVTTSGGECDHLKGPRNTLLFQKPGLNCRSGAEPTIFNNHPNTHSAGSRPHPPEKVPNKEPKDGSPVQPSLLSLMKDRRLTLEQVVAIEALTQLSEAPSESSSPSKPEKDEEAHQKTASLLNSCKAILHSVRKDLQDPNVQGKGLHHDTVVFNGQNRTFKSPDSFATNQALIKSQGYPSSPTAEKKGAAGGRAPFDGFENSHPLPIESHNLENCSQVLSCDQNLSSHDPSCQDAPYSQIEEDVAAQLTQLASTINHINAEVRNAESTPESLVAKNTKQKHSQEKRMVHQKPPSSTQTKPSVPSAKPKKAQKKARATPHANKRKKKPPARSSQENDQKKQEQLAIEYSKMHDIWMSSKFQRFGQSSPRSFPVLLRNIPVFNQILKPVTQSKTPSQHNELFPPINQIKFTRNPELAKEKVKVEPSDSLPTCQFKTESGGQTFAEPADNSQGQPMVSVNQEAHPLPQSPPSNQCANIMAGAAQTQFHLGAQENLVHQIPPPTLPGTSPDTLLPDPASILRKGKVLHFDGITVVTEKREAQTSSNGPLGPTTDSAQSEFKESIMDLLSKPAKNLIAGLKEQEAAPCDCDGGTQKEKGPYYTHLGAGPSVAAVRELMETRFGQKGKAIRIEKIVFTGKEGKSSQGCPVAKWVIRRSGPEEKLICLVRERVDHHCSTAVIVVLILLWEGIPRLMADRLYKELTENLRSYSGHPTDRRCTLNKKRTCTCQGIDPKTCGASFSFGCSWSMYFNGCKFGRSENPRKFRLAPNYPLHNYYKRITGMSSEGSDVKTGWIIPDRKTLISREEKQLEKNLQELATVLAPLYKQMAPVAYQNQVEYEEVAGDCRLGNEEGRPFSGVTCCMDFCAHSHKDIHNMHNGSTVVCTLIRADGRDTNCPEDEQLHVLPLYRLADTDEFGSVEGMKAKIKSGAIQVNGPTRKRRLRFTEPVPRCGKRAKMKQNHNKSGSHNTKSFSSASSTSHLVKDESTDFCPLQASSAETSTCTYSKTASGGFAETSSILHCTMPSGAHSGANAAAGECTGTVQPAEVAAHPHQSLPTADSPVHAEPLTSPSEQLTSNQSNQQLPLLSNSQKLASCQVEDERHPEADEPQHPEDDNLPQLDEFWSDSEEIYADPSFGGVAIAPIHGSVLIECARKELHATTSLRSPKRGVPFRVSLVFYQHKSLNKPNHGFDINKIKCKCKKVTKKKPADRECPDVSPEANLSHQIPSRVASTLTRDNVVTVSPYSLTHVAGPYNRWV
UniProt P70388: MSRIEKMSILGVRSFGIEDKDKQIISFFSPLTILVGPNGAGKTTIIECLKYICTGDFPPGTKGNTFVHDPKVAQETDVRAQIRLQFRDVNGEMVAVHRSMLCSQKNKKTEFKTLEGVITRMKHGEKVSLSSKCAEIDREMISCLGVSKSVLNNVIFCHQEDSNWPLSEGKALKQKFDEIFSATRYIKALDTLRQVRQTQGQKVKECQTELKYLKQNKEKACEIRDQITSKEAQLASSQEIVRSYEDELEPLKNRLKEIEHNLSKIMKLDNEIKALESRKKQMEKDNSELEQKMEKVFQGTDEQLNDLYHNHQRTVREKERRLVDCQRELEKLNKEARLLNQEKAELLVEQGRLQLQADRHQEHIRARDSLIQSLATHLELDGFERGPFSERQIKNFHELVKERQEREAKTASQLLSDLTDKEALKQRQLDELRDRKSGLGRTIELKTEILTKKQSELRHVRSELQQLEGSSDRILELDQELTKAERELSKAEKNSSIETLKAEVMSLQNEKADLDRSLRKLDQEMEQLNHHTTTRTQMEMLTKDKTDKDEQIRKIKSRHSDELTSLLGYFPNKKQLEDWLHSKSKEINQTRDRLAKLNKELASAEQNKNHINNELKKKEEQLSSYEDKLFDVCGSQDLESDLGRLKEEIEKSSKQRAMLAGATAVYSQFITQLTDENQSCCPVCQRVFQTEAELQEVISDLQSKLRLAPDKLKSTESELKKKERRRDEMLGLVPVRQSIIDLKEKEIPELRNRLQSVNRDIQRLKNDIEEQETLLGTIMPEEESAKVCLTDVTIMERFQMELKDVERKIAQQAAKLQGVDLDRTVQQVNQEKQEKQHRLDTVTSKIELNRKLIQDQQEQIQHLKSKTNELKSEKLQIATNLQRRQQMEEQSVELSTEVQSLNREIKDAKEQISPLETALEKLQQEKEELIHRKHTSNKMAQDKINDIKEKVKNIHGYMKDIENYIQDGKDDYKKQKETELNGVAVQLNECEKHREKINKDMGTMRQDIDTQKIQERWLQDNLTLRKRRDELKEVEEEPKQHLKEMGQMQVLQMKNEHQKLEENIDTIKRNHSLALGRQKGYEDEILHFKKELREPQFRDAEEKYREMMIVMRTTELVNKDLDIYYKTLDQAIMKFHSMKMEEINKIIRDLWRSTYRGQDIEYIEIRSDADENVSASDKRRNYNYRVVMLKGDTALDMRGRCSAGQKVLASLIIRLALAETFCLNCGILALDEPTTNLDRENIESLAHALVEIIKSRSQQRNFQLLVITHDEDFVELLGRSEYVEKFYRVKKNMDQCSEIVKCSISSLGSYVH

The target in experiment [1] is tet methylcytosine dioxygenase 1 (Tet1) (mouse (endogenous; the paper cultures only mouse cells, the cell type of the co-IP is not named)) (UniProt Q3URK3). Kind of experiment: co-IP; cells lysed in RIPA buffer with proteinase inhibitor cocktail, sonicated, precleared with protein G magnetic beads 1 h; anti-Tet1 or anti-Rad50 antibody overnight at 4 °C; beads washed with RIPA buffer, western blot; also done after Mre11 and Nbs1 knockdown (interaction significantly decreased).

Experiment [2] deals with Rad50 (mouse (endogenous; the paper cultures only mouse cells, the cell type of the co-IP is not named)) (UniProt P70388). The description is as above.

With Rad50 (from UniProt P70388 1-1312), the binding result in experiment [1] is “binds”.

“tet methylcytosine dioxygenase 1 (Tet1) (from UniProt Q3URK3 1-2039) (enzyme)”: the binding result in experiment [2] is given as “binds”.

The values are drawn from publication PMC8080709.
